What all share (assay): glycan array binding signal (z-score within array); higher = stronger binding
Holding throughout (settings): glycan notation: IUPAC condensed, linker removed

The target of test [1] is Fuc(a1-2)Gal. The gist of the method:
(§1)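 Arrays were curated from the Consortium for Functional Glycomics database, 3228 in total, and kept only where the protein sequence was available. Binding is expressed as a within-array Z-score. This score was averaged across arrays of the same protein sequence at different concentrations or buffers and across linkers, and negative values can be read as non-binding.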

In test [2] the target is Fuc(a1-2)Gal(b1-3)GalNAc. An outline of the steps:
as §1

Test [3] addresses Fuc(a1-2)Gal(b1-3)GalNAc(a1-3)[Fuc(a1-2)]Gal(b1-4)Glc. The gist of the method:
as §1

Test [4] has as its target Fuc(a1-2)Gal(b1-3)GalNAc(a1-3)[Fuc(a1-2)]Gal(b1-4)GlcNAc. The gist of the method: as §1
The target of test [5] is Fuc(a1-2)Gal(b1-3)GalNAc(b1-3)Gal. An outline of the steps: as §1
Test [6] has as its target Fuc(a1-2)Gal(b1-3)GalNAc(b1-3)Gal(a1-4)Gal(b1-4)Glc. The gist of the method: as §1
The target in test [7] is Fuc(a1-2)Gal(b1-3)GalNAc(b1-4)[Neu5Ac(a2-3)]Gal(b1-4)Glc. The gist of the method: as §1
In test [8] the target is Fuc(a1-2)Gal(b1-3)GlcNAc. The gist of the method:
as §1

In test [9] the target is Fuc(a1-2)Gal(b1-3)GlcNAc(b1-2)Man(a1-3)[Fuc(a1-2)Gal(b1-3)GlcNAc(b1-2)Man(a1-6)]Man(b1-4)GlcNAc(b1-4)GlcNAc. The gist of the method:
as §1

Test [10] deals with Fuc(a1-2)Gal(b1-3)GlcNAc(b1-2)Man(a1-3)[Fuc(a1-2)Gal(b1-3)GlcNAc(b1-2)Man(a1-6)]Man(b1-4)GlcNAc(b1-4)[Fuc(a1-6)]GlcNAc. An outline of the steps: as §1
For test [11], the target named is Fuc(a1-2)Gal(b1-3)GlcNAc(b1-3)Gal(b1-4)Glc. The gist of the method: as §1
For test [12], the target named is Fuc(a1-2)Gal(b1-3)GlcNAc(b1-3)GalNAc. The gist of the method:
as §1

In test [13] the target is Fuc(a1-2)Gal(b1-3)GlcNAc(b1-3)[Fuc(a1-3)[Gal(b1-4)]GlcNAc(b1-6)]Gal(b1-4)Glc. The gist of the method:
as §1

Test [14] concerns the target Fuc(a1-2)Gal(b1-3)GlcNAc(b1-3)[Gal(b1-4)GlcNAc(b1-6)]Gal(b1-4)Glc. The gist of the method:
as §1

Test [15] has as its target Fuc(a1-2)Gal(b1-3)GlcNAc(b1-3)[Neu5Ac(a2-6)Gal(b1-4)GlcNAc(b1-6)]Gal(b1-4)Glc. The gist of the method: as §1
In test [16] the target is Fuc(a1-2)Gal(b1-3)[Fuc(a1-4)]GlcNAc. The gist of the method:
as §1

In test [17] the target is Fuc(a1-2)Gal(b1-3)[Fuc(a1-4)]GlcNAc(b1-2)Man(a1-3)[Fuc(a1-2)Gal(b1-3)[Fuc(a1-4)]GlcNAc(b1-2)Man(a1-6)]Man(b1-4)GlcNAc(b1-4)GlcNAc. The gist of the method:
as §1

In test [18] the target is Fuc(a1-2)Gal(b1-3)[Fuc(a1-4)]GlcNAc(b1-3)[Fuc(a1-3)[Gal(b1-4)]GlcNAc(b1-6)]Gal(b1-4)Glc. The gist of the method:
as §1

Test [19] deals with Fuc(a1-2)Gal(b1-3)[Fuc(a1-4)]GlcNAc(b1-3)[Gal(b1-4)GlcNAc(b1-6)]Gal(b1-4)Glc. An outline of the steps:
as §1

Test [20] has as its target Fuc(a1-2)Gal(b1-4)Glc. The gist of the method:
as §1

Test [21] has as its target Fuc(a1-2)Gal(b1-4)Glc6S. An outline of the steps:
as §1

In test [22] the target is Fuc(a1-2)Gal(b1-4)GlcNAc. The gist of the method: as §1

This is one part of the list.

B1: RetS (Pseudomonas aeruginosa), Q9HUV7 (protein)
chain: MVRLRIAIGLLVSFLLLLLGPMSPAVADDAGVSSVPLQTTATTPSANQNWRLLRDESAQLRIADVLQRKEQFRPLAKRSFIFPASPQAVWLQVQLPAQKVPSWLWIFAPRVQYLDYYLVQDGQLVRDQHTGESRPFQERPLPSRSYLFSLPVDGKPMTLYVRMTSNHPLMAWFDQIDEAGLVGLEKPAYAFGMLLGGMLLLLMYNLIRFAYSRSASSLWLAAVHAALAVCAAANLGLVAFWLPGLKFNQSLTADLGALGAAVSLLWFACSFFRGTAESRLNRLLQGEALLILAVGAIIAFTQQLWFSWLIYLLVILSSLSVPLIAAWHWYRGYQPARLIVAGMIVFNAGFMVFLPVLFGTKQLDPGWLVLGVFSFATLAGLVLSVSLTERQRLIQQLNLQQRTSEAAHTAELQTKAEFLAKISHEIRTPMNGVLGMTELLLGTPLSAKQRDYVQTIHSAGNELLTLINEILDISKLESGQIELDEVQFDLNALIEDCLDIFRVKAEQQRIELISFTQPQVPRVIGGDPTRLRQVVLSLLDNAFKQTEEGEILLVVALDDQGETPRLRIAVQDSGHPFDAKEREALLTAELHSGDFLSASKLGSHLGLIIARQLVRLMGGEFGIQSGSSQGTTLSLTLPLDPQQLENPTADLDGPLQGARLLVVDDNETCRKVLVQQCSGWGLNVSAVSSGKEALAQLRTKAHLREYFDVVLLDQDMPGMTGMQLAAKIKEDPNLNHDILLIMLTGISNAPSKIIARNAGIKRILAKPVAGYTLKATLADELAQRGVSGVTNYLQPAKEAQAPSLPSDFRILVAEDNSISTKVIRGMLNKLNLQPDTASNGQEALSAMKATQYDLVLMDCEMPVLDGFSATEQLRAWEAHEQRPHTPVVALTAHILSEHKERARLVGMDGHMAKPVELSQLRELIAYWVGERDRRRQGDALPS
On to B1, for which the “glycan array binding signal (z-score)” value is 1.84 in [1]; -0.512 in [2]; -0.369 in test [3]; 0.137 in test [4]; -1.25 in test [5]; -1.04 in [6]. For the same molecule, the “glycan array binding signal (z-score)” value is 0.564 in test [7]; 0.454 in test [8]; 0.267 in test [9]; 0.997 in test [10]; 0.311 in [11]; -0.701 in [12]. Besides, the “glycan array binding signal (z-score)” value in test [13] is -1.12; in test [14] it was -0.358; in test [15] it was 1.68; in test [16], 0.195; in [17], 0.718; in [18], 0.276. Besides, the “glycan array binding signal (z-score)” value in test [19] was 1.19; in [20], -0.194; in [21], 0.411; in [22], -0.003.

(Values after the supplement of paper PMC8728848.)
